# Experimental data taken from PubChem BioAssay AID1671190 (National Center for Advancing Translational Sciences (NCATS), 2021).
# Sequences of proteins named here, by UniProt entry; tags and fusion partners are left off. A change or cut given only in a name is not applied to a line headed by its entry.
# UniProt P18054: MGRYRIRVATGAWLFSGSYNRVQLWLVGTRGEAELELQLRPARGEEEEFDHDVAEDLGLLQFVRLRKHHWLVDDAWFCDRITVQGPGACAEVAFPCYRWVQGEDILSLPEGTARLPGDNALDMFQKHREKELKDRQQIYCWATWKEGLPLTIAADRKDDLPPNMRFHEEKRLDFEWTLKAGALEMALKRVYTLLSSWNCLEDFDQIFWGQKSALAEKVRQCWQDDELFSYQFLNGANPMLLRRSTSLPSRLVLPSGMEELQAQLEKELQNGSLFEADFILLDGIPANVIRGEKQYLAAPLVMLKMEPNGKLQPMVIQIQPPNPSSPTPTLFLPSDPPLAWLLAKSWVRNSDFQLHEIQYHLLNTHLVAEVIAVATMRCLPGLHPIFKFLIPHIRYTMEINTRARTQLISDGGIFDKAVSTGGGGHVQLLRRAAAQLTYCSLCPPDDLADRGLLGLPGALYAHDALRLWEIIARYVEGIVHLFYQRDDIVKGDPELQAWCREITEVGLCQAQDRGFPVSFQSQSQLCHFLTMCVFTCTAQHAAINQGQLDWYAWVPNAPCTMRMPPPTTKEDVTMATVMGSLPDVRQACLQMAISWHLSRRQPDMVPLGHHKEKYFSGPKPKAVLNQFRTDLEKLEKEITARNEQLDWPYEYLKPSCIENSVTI
# “And” between values parts separate entries of the source, which are not always exact repeats. Equal entries are not always repeated. Hit rate of the full screen: of about 580,000 compounds, about 6,100 (1.1%) were called active. Inconclusive means that the source gave no clear call. Such entries were picked first, then a sample of the others. Calls come from the whole dose curve; as a rule, active = well fitted inhibition curve with a large enough effect; inconclusive = small, poorly fitted or top-dose-only effect, or another doubt; inactive = no such curve, though single readings can be large or run the other way. Potencies beside an inconclusive call are fits to weak or partial responses and may not hold up.
# Target: Polyunsaturated fatty acid lipoxygenase ALOX12 (Homo sapiens) (UniProt P18054)
# Assay: Primary qHTS assay for inhibitors of human arachidonate 12S-lipoxygenase (ALOX12): Round 2
# Details: purified 12hLO, xylenol orange hydroperoxide absorbance; activity change, negative = inhibition: at 108 µM (top of the series)
# Summary of the method: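 Purified human 12hLO at 150 nM in 25 mM Hepes, 0.01% Triton X-100, pH 7.0, preincubated 15 min at room temperature with compound. Reaction started with 40 uM arachidonic acid, 30 min at room temperature. Hydroperoxide measured by Fe-xylenol orange, 573/405 nm absorbance ratio.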
# % is set by controls: 0 for no effect and ±100 for the full control effect; potency is the fitted concentration of half-maximal effect.
Structure (SMILES),Potency,"activity change, negative = inhibition"
CC1CN2CC(O)CC2CN1 (stereo not given),"inconclusive: 8.5 µM [inhibitor, single point]",–
O=C([C@H]1CN2CCC1C[C@@H]2Cn1cc(COc2ccccc2)nn1)N1CCOCC1 (stereo not given in full),–,inactive: 7.88% [at 176 µM]
CC1=CC(O)C(O)C2(C)C1CC1OC(=O)C(O)C3C(C)C(O)C4(O)OCC13C42 (stereo not given),–,inactive: 22.2%
O=c1[nH]c2cc(Cl)ccc2n1C1CCN(Cc2ccc(-c3nc4ccccc4nc3-c3ccccc3)cc2)CC1,"inconclusive: 28.2 µM [inhibitor, partial curve]",–
O=c1[nH]c(=O)n(-c2ccc(F)cc2)c(O)c1/C=C1\C=Nc2ccccc21,–,inactive: -8.52%
O=C1NC(=O)N(c2ccccc2)C(=O)/C1=C\c1ccc([N+](=O)[O-])s1,–,inactive: 0%
COC(=O)N1CCN(C(=O)Cc2ccc(Cl)c(Cl)c2)[C@H](CN2CCCC2)C1,"inconclusive: 28.2 µM [inhibitor, single point]",–
NCCc1c[nH]c2ccccc12,"inactive and inconclusive: 35.5 µM [inhibitor, partial curve, poor fit]",–
FC(F)(F)c1ccccc1CNCCc1c[nH]c2ccccc12,–,inactive: 0%
O=C(NCCN1CCC2(CC1)C(=O)NCN2c1ccccc1)c1cccc(F)c1,–,inactive: -16.3%
O=C1NC(=O)C(Cc2cccs2)C(=O)N1,"inconclusive: 3.55 µM [inhibitor, full curve, poor fit]",–
CC(Cc1ccccc1)NCCC(c1ccccc1)c1ccccc1 (stereo not given),"inconclusive: 50.1 µM [inhibitor, partial curve, poor fit]",–
Clc1ccc(-n2nnnc2C2(NC3CCCCC3)CCCCC2)cc1,"inconclusive: 35.5 µM [inhibitor, partial curve]",–
Cc1cccc(N2C(=O)NC(=O)/C(=C\c3cnn(-c4ccccc4)c3)C2=O)c1,"inconclusive: 50.1 µM [inhibitor, single point]",–
COc1ccc2c(CCN)c[nH]c2c1,"inconclusive: 50.1 µM [inhibitor, partial curve, poor fit]",–
O=C(O)c1cc(I)cc(I)c1I,"inconclusive: 44.7 µM [inhibitor, partial curve, poor fit]",–
O=C(CCc1ccccc1)N1[C@H]2CC[C@@H]1c1cnc(-c3ccc(F)cc3)nc1C2,–,inactive: -5.21%
CCC1(CC)C(=O)NC(=O)N(CCc2ccccn2)C1=O,–,inconclusive: -33.2% [inhibitor]
NS(=O)(=O)c1ccc(-c2ccc(C=C3C(=O)NC(=S)NC3=O)o2)cc1,"inconclusive: 10 µM [inhibitor, full curve, poor fit]",–
Cc1ccc(Sc2ccc(C=C3C(=O)N(C)C(=O)N(C)C3=O)o2)cc1,active: 35.5 µM,–
O=C(N/N=C/c1c(O)n(C2CCCCC2)c(=S)[nH]c1=O)c1ccccc1,"inconclusive: 4.47 µM [inhibitor, full curve]",–
O=C(Nc1cccc(C(F)(F)F)c1)OC[C@H]1C[C@@H]2CCN1C[C@@H]2c1cc(C2CCCC2)nc(-c2ccncc2)n1,active: 50.1 µM,–
CC(=O)OC1CC2OC3C=C(C)CCC3(C)C1(C)C21CO1 (stereo not given),–,inactive: 17.7%

# Arranged by SMILES length (descending): some entries from above.
Structure (SMILES),Potency,"activity change, negative = inhibition"
O=C([C@H]1CN2CCC1C[C@@H]2Cn1cc(COc2ccccc2)nn1)N1CCOCC1 (stereo not given in full),–,inactive: 7.88% [at 176 µM]
CC(=O)OC1CC2OC3C=C(C)CCC3(C)C1(C)C21CO1 (stereo not given),–,inactive: 17.7%
NCCc1c[nH]c2ccccc12,"inactive and inconclusive: 35.5 µM [inhibitor, partial curve, poor fit]",–

# The listing continues.

Structure (SMILES),Potency,"activity change, negative = inhibition"
CCOc1ccc(C(C)=O)cc1Cc1c(O)[nH]c(=S)[nH]c1=O,"inconclusive: 25.1 µM [inhibitor, partial curve, poor fit]",–
CCOC(=O)[C@]12Cc3cc(OC)ccc3[C@H]1N(Cc1ccccc1)C(=O)c1ccccc12,–,inactive: 3%
COc1cccc(CC(=O)N2CCN(CC(=O)NC(N)=O)CC2)c1,–,inactive: 1.01%
O=C(NCC1=C(c2cccc3ccccc23)C[C@@H]2CC[C@H]1N2Cc1ccco1)c1cccs1,"inconclusive: 39.8 µM [inhibitor, partial curve, poor fit]",–
Cc1ccc2c(c1)c(=O)c1c3n2CCN(CC2CO2)C3CC1 (stereo not given),–,inactive: -13.5%
CCN(CC)c1ccc(N=Cc2c(O)n(-c3ccc(Cl)cc3)c(=O)[nH]c2=O)cc1,–,inactive: 0%
Cn1cnc([N+](=O)[O-])c1Sc1ccc([N+](=O)[O-])cc1,"inconclusive: 39.8 µM [inhibitor, partial curve, poor fit]",–
FC(F)(F)c1ccc(CNCCc2ccc3c(c2)OCO3)cc1,active: 1.78 µM,–
c1cc2c(cc1CCNC1CCCCCC1)OCO2,"inconclusive: 0.355 µM [inhibitor, full curve, poor fit]",–
CN1CCC(O)(c2ccccc2)C2CCCC21 (stereo not given),–,inactive: -0.107%
COc1ccc(OCC(=O)N2CCN(CC3CC4C=CC3C4)CC2)cc1 (stereo not given),"inconclusive: 1.26 µM [inhibitor, full curve, poor fit]",–
COc1ccc(C)cc1CCNCc1ccc(C)s1,"inconclusive: 1.58 µM [inhibitor, full curve]",–
Cc1cc(SCc2sc(-c3ccc(C(F)(F)F)c(F)c3)nc2C)ccc1OCC(=O)O,"inconclusive: 8.63 µM [inhibitor, partial curve, poor fit]",–
Clc1ccc2c(c1)C(c1ccccc1Cl)=NCc1nnc(N3CCN(CCSc4ccccc4)CC3)n1-2,"inconclusive: 70.8 µM [inhibitor, single point]",–
Cc1cc(C)c2[nH]c(C)c(CCN)c2c1,"inconclusive: 1.26 µM [inhibitor, full curve, poor fit]",–
Cc1ccccc1-n1c(O)c(/C=C2/C(c3ccccc3)=Nc3ccccc32)c(=O)[nH]c1=O,–,inactive: -22.6%
COc1ccc(C(=O)CC(c2ccc3c(c2)OCO3)c2c(O)c3ccccc3oc2=O)cc1OC (stereo not given),–,inactive: -27.2%
CCCCCN1C(=O)c2cc(OC)ccc2[C@@]2(C(=O)OCC)Cc3cc(Cl)ccc3[C@@H]12,"inconclusive: 50.1 µM [inhibitor, partial curve, poor fit]",–
C=CCn1c(O)c(/C=C2/C=CC=N2)c(=O)[nH]c1=O,"inconclusive: 44.7 µM [inhibitor, partial curve, poor fit]",–
C=CCN1CCN(c2cccc(C(F)(F)F)c2)CC1,–,inactive: 1.97%
COc1cc2c3c(c1OC)-c1cc(O)ccc1CC3NCC2 (stereo not given),inactive,–
CCc1ccc(CN2CCN(Cc3ccc(SC)cc3)CC2)cc1,"inconclusive: 0.891 µM [inhibitor, full curve, poor fit]",–
